Ends that are not written are not given here.
Assay: Search of ligands against database of healthy tissues and tumor samples characterized by MHC proteomics
Design: species or system human
Details: for Benign Tissue: number of benign tissue samples in ligandome database presenting the ligand; for Tumors: number of tumor samples in ligandome database presenting the ligand

ALLSGVRQV [ALLSGVRQV]
Benign Tissue: 0 | Tumors: 0

FLDETLRSLA [FLDETLRSLA]
Benign Tissue: 0 | Tumors: 3

FLIENLLAA [FLIENLLAA]
Benign Tissue: 0 | Tumors: 0

IYPDITYSL [IYPDITYSL]
Benign Tissue: 0 | Tumors: 0

LLLPLLPPLSP [IGFBPL1-derived HLA-A*02:01 ligand, tumor antigen]
Benign Tissue: 0 | Tumors: 2

QYNPIRTTF [QYNPIRTTF]
Benign Tissue: 0 | Tumors: 2

SAAMVFSAL [ATP6V0C-derived HLA-C*03:03 ligand, tumor antigen]
Benign Tissue: 0 | Tumors: 2

SYQKVIELF [SYQKVIELF]
Benign Tissue: 7 | Tumors: 2

VLFENTDSVHL [VLFENTDSVHL]
Benign Tissue: 1 | Tumors: 19

From patent US12357694B2, “Methods and compositions for use of tumor self-antigens in adoptive immunotherapy” (THE CHILDREN'S HOSPITAL OF PHILADELPHIA, priority 2018, dated 2025)
